No constants are given. Whether binding was seen depends on the method and setting. Binding seen in cells or lysates may run through a third protein. Some binding calls cover weakened binding; strength is not graded here.
Experiments:
[1] = molecular target: TCF-4 (T cell factor 4) transcription factor (human (endogenous in C33A)) (UniProt Q9NQB0); assay: co-IP; C33A cells transfected with FLAG-E6 plasmids, 48 h; 400 µg protein extract with 1 µg anti-β-catenin or anti-TCF-4 (or IgG isotype) overnight at 4 °C, protein G-agarose 3 h, washed with PBS-0.1% NP-40; E6 proteins detected with anti-FLAG M2
[2] = molecular target: β-catenin (human (endogenous in C33A)) (UniProt P35222); assay: as above
[3] = molecular target: GST-18E6 (human papillomavirus type 18) (UniProt P06463); assay: pull-down; GST-E6 fusion proteins on glutathione sepharose beads incubated overnight with 40 µg C33A cellular protein extract; bound protein detected by western blot with anti-TCF-4 and anti-β-catenin; only the target purified
[4] = molecular target: GST-16E6 (human papillomavirus type 16) (UniProt P03126); assay: as above

Protein sequences, listed by entry. Tags and fused reporters are not part of them. Lines headed by an entry give the natural chain unless they say otherwise; changes in a name come on top.
UniProt Q9NQB0: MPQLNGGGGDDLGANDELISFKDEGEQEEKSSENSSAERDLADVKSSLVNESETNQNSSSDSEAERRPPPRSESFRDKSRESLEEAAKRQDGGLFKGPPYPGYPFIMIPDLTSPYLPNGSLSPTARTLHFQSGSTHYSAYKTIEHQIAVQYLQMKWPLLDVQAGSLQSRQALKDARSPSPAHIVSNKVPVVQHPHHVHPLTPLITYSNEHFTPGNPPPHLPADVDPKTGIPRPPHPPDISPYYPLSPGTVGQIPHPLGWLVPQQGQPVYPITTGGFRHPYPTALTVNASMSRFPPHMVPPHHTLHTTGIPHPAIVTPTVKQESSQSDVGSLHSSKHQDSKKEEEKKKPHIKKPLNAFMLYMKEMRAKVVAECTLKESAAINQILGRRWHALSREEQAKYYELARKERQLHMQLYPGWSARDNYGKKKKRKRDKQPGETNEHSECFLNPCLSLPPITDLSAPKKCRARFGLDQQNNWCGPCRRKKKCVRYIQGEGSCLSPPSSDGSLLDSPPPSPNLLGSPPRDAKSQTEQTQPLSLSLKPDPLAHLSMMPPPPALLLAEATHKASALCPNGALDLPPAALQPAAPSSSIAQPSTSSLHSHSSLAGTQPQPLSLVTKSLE
UniProt P35222: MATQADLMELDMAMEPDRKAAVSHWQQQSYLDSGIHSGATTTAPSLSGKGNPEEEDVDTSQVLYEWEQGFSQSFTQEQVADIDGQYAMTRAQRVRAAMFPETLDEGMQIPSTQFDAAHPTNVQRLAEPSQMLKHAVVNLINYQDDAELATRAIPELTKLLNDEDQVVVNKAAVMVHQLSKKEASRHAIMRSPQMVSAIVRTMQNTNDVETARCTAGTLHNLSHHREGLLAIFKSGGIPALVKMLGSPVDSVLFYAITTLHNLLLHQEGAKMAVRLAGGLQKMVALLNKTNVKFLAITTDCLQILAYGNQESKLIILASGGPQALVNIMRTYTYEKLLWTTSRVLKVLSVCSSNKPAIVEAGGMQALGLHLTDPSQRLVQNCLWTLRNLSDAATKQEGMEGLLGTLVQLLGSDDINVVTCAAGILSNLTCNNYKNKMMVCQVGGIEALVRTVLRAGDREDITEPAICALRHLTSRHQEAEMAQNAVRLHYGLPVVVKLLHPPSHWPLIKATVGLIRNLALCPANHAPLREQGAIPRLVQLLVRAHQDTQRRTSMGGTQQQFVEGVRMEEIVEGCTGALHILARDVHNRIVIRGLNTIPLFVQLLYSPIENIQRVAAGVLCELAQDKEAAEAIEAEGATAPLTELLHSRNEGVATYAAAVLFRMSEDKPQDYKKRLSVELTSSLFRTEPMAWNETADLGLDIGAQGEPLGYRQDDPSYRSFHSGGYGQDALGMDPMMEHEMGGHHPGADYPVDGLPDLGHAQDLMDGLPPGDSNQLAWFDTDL
UniProt P03126: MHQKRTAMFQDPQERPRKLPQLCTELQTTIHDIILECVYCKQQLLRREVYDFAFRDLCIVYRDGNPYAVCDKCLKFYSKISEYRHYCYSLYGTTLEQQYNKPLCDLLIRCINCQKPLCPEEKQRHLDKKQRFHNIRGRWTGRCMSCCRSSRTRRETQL

Substance	binding [1]	binding [2]	binding [3]	binding [4]
HPV-16 E6, FLAG-tagged (from UniProt P03126 1-158)	binds	binds		
TCF-4 (T cell factor 4) transcription factor (from UniProt Q9NQB0 1-619)			binds	binds
β-catenin (from UniProt P35222 1-781)			binds	binds
HPV-18 E6 full-length, FLAG-tagged (reference variant E6AsAi) (from UniProt P06463 1-158)	binds	binds		
